For 6 molecules, binding results are on record in paper PMC4833825.

Results are given in words; binding and its absence hold for the method and conditions named. For some assays here: Binding seen in cells or lysates may run through a third protein. Some entries that bind do so weakly or less than the wild type. Where a sequence is shown, tags or fusion partners need not be part of it.

In test [1] the target is T1, β subunit of S. pombe eIF2B, tags cleaved (S. pombe) (UniProt Q9UT76).
T1 sequence: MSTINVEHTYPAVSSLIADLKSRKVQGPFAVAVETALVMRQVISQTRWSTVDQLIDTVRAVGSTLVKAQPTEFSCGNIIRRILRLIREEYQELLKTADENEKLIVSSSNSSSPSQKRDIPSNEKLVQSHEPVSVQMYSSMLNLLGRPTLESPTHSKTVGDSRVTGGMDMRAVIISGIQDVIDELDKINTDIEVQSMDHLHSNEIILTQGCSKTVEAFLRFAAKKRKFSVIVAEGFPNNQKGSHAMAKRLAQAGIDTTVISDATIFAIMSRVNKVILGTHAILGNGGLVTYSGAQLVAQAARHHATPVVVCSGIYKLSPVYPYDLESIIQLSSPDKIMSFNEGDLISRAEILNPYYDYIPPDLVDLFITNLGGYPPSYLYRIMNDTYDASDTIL
Nature of the test: SEC; purified complex after HRV 3C cleavage of the tags; Sephacryl S-300, then Superose 6 with HMW calibration kit, buffer C (20 mM HEPES-KOH pH 7.5, 150 mM KCl, 5 % glycerol, 1 mM DTT), 277 K; SDS-PAGE of the purified complex; both purified.

Test [2] deals with T2, MBP-His6-fused β subunit of S. pombe eIF2B (S. pombe) (UniProt Q9UT76).
T2 sequence: T1 sequence
Nature of the test: pull-down; lysate of E. coli Rosetta2(DE3) co-expressing all five subunits applied to Amylose Resin (MBP tag on the β subunit), eluted with 10 mM maltose, then HiTrap Heparin; 20 mM HEPES-KOH pH 7.5, 150 mM KCl, 277 K; SDS-PAGE (Fig. 2i: wild type and α-subunit mutants).

B1: ε subunit of S. pombe eIF2B, tag cleaved (protein, UniProt P56287 1-678)
chain: MPPSKGLNGKLEKPKHALQAIVLSDSYNYRFRPLTLDKPRCLLPLANTPLIEYTFEFLALAGVQEVYVFCCAHAGQIREYIEKSKWNLPSSPFSVNTIVSRESLSVGDALRELDSKQLITSDFILVSGDVVSNVPLNEVLKEHRKRREDDKNAIMTMVVREASPFHRTRARTESSVFVIDKKTSQCVHYQANERGKHYVSMDPEIFNEHEELEVRNDLIDCQIDICSNDVPALFTENFDYQDIRKDFVYGVLTSDLLGKKIHCHVAKENYAARVRSLQTYDAISKDVLSRWVYPFVPDSNLLNQTFSYQRHQIYKEEDVVLARSCIIKARTLIGAYTKVGDASVVANTIIGRNCTIGSNCSIDSAFLWEDVVIGDNCRIGKAILANSVKIGNNCSIEDGAIVAAGVVIGDNTIIEKNKRLTTFESHSQGTLNDPSLVGIGGRGQEYHAEEDSDDEGEFMEASGLIESTNELHLSDSESSETSSSSEEDMEFIPFSARRDSANTINSEDFDEGDFNKEAQQSLERAFEENHQIDIAALELNTLRMAMNANYHEVRSAIVLALLRRIMHLDVSPKEALAKVMTRWGPLLAKLTFSHEEQVDNVLTLQKYCVRLSMTRHFLQLLGYFYQLEIAEENAIQEWYSDPRSSEGELAALRDAGGKQFVDWLNTAESESESEEGSE
As to B1, in test [1], the binding entry is on record as “binds”.

B2: N-terminally His6-fused ε subunit of S. pombe eIF2B (protein, UniProt P56287 1-678)
chain: B1 chain
On to B2, for which, in test [2], the binding result is recorded as “binds”.

B3: non-tagged γ subunit of S. pombe eIF2B (protein, UniProt P56288 1-458)
chain: MSLYEHAALPLASSPSILGPISGGRNRGNIQLQSIPIEFQAVVFAGFGNSLYPLTGSDALPKALLPIGNKPMLHYPLYWLEAAGFTSAILICMEEAEAHINAWLRSGYEGHMRIHVEAPTILDDSKSSADALRAVSHLIKNDFVCLSCDSIVGLPPIYGLDKFRLDNPSALAVYSPVLKYEHITSQSKEIDAKQLIGIEEKTSRLLYAKSSADVGSDFTFRMSLLWKHPRVTLNTNLSDAHIFVFKHWVIDLIREKESISSIRGDLIPYLVKCQYQKSFTVRENIQRFLSSPNNIDNYDGGLSSQEIKINALIAKDGIICSRANNLPNYFELNKCIAKLTPEQRLVDVTVSERALVGADCMVNEGTTIKDNSNIKKSIIGKNCVIGKGVVVSNSILMDNIVVEDGVRLESCIVASGAQIGAKSKLRECEIGVDHRVEAGRIARGERLVDMEKIETDMD
As for B3, the binding result in test [1] and in test [2] was “binds” in each case.

B4: α subunit of S. pombe eIF2B, tag cleaved (protein, UniProt Q9USP0 1-341)
chain: MVESDSSGIVRHSQGEFDIVQVYKKFLQDDPEITMPVAAIEALVQLLSRSQAKTISEFMDILQNGSNTLKEGVQNNISLSAGCDIFQRFVTRSLHDVGDFEQCKRHLVENGKLFIQRARACRQRIAHLGYPLIRDGSVILTHGFSRGVAAVLLAAAKRHVRFKVFVTESRPSGSGCLMTRTLKNACIPTCMVLDSAVSFTMNRVDLVLVGAEGVVENGGLINQIGTFQLAVFAKHAHKPFYAVAESHKFVRMFPLSQYDIPFSRPILEFDDPSPETVHPEPEPIPTPSDAIHNELIMNEEQIRNNPTLDVTPPEFVSGLITDLGIIDSKSGVSEELIKLYL
On to B4, for which the binding entry in test [1] is recorded as “binds”.

B5: His6-fused α subunit of S. pombe eIF2B (protein, UniProt Q9USP0 1-341)
chain: B4 chain
On to B5, for which the binding entry in test [2] was “binds”.

B6: δ subunit of S. pombe eIF2B (protein, UniProt Q09924 1-467)
chain: MGFSAEQAKKDGKDQSPVSESSSVGGTSPATASSVVSPNEPKLSGKEAKALKKARKQASRRAKAEAAAANNPPGVSEEKKVAIPNKNSNQQKKASKQNPQNSPETDANLQEKKIFEEKQVSIFSHLDWRRRRTTENIPKDIHPAVIRLGLKLANYKIFGSNQRCIDLLKTFKIVIQDYQTPYGTTLSRHLTTHINSQIAYLVSTRPLSISMGNAIRFLKLEISVLDIDLTDDEGKELLLEKIDSYIRDRIIIAGQVIVQAATEKIQDGDVILTYLHSSTVNDVLIHAKNVGKKFRVVVVDSRPEFEGRVCLKLLTEHGIECTYVMISALSYIMQEVTKIFLGGHAMLSNGALYSRAGTSLISLLGHESNVPVIACCESYKFTERIQLDSLVYNELAPGDQLVNMGVDDFEEKPGVLANWKSVKNLKLLSLKYDVTPPRLITVCVCEMGLLPSTSVPAIINEFKQVYA
With B6, the binding result in test [1] and in test [2] was “binds” in each case.
